Assay results: patent publication US20220324835A1 (Nurix Therapeutics, Inc., priority 2018, published 2022)

Sequences of proteins named here, by UniProt entry; tags and fusion partners are left off. Residues count along the entry.
UniProt Q13191, 36-427 limits assumed: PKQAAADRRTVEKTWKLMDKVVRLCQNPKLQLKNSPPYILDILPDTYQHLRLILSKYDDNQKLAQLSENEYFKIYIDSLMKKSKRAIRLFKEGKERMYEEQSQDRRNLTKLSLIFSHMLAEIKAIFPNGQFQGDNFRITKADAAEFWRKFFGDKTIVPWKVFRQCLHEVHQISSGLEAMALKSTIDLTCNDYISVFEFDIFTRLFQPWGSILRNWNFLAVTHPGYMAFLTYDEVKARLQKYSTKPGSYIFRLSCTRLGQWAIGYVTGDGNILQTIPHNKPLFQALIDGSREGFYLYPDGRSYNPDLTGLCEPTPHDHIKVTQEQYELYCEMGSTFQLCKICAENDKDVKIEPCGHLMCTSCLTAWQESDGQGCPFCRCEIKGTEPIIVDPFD

How the values were obtained:
[1] = test system: T-cell; assay: IL-2 secretion from T-cells co-stimulated with anti-CD3 and anti-CD28 antibody (Biological Example 2); conditions: for IL-2 secretion, Anti-CD3/Anti-CD28 stimulation, fold change over baseline: primary human total T-cells, baseline = anti-CD3/anti-CD28 stimulated cells without inhibitor; for IL-2 secretion Anti-CD3/Anti-CD28 stimulation: fold change over baseline (anti-CD3/anti-CD28 stimulated T-cells without inhibitor)
[2] = test system: T-cell; assay: IL-2 secretion from T-cells stimulated with anti-CD3 antibody alone (Biological Example 2); conditions: for IL-2 secretion Anti-CD3 stimulation: 1 μM Cbl-b inhibitor, fold change over baseline (anti-CD3/anti-CD28 stimulated T-cells without inhibitor)
[3] = test system: T-cell; assay: CD25 cell surface staining on T-cells co-stimulated with anti-CD3 and anti-CD28 antibody (Biological Example 2); conditions: for CD25 staining, Anti-CD3/Anti-CD28 stimulation, fold change over baseline: primary human total T-cells, baseline = anti-CD3/anti-CD28 stimulated cells without inhibitor; for CD25 staining Anti-CD3/Anti-CD28 stimulation: fold change over baseline (anti-CD3/anti-CD28 stimulated T-cells without inhibitor)
[4] = test system: T-cell; assay: CD25 cell surface staining on T-cells stimulated with anti-CD3 antibody alone (Biological Example 2); conditions: for CD25 staining Anti-CD3 stimulation: 1 μM Cbl-b inhibitor, fold change over baseline (anti-CD3/anti-CD28 stimulated T-cells without inhibitor)
[5] = target: Cbl-b (Homo sapiens, UniProt Q13191); assay: Cbl-b activity assay (Cbl-b inhibition assay), TR-FRET of Cbl-b interaction with UbcH5B-Ub; format: biochemical; conditions: read-out: Cbl-b activity IC50; assay buffer with 100 mM NaCl, 60 nM Src kinase

SMILES: Cn1cnnc1CC1(c2cccc(N3Cc4c(cc(CN5CC6C(C5)C6(F)F)cc4C(F)(F)F)C3=O)c2)COC1 (stereo not drawn)
- IL-2 secretion, Anti-CD3/Anti-CD28 stimulation, fold change over baseline ([1]; 0.3 μM compound): B (B indicates 5.00-7.50 fold)
- IL-2 secretion, Anti-CD3/Anti-CD28 stimulation, fold change over baseline ([1]; 1 μM compound): A (A indicates ≥7.50 fold)
- IL-2 secretion, Anti-CD3 stimulation, fold change over baseline ([2]; 1 μM compound, primary human total T-cells): A (A indicates ≥0.201 fold)
- CD25 staining, Anti-CD3/Anti-CD28 stimulation, fold change over baseline ([3]; 0.3 μM compound): C (C indicates 1.31-1.50 fold)
- CD25 staining, Anti-CD3/Anti-CD28 stimulation, fold change over baseline ([3]; 1 μM compound): C (C indicates 1.31-1.50 fold)
- CD25 staining, Anti-CD3 stimulation, fold change over baseline ([4]; 1 μM compound, primary human total T-cells, baseline = anti-CD3/anti-CD28 stimulated cells without inhibitor): A (A indicates ≥1.001 fold)
- IC50 [5]: < 100 nM

SMILES: Cn1cnnc1CC1(c2cccc(N3Cc4c(cc(N5CCN6CCC[C@H]6C5)cc4C(F)(F)F)C3=O)c2)COC1
- IL-2 secretion Anti-CD3/Anti-CD28 stimulation ([1]; 0.3 μM Cbl-b inhibitor): A (A indicates ≥7.50 fold)
- IL-2 secretion Anti-CD3/Anti-CD28 stimulation ([1]; 1 μM Cbl-b inhibitor): A (A indicates ≥7.50 fold)
- IL-2 secretion Anti-CD3 stimulation [2]: A (A indicates ≥0.201 fold)
- CD25 staining Anti-CD3/Anti-CD28 stimulation ([3]; 0.3 μM Cbl-b inhibitor): A (A indicates ≥1.76 fold)
- CD25 staining Anti-CD3/Anti-CD28 stimulation ([3]; 1 μM Cbl-b inhibitor): A (A indicates ≥1.76 fold)
- CD25 staining Anti-CD3 stimulation [4]: A (A indicates ≥1.001 fold)
- IC50 [5]: < 100 nM

SMILES: Cn1cnnc1CC1(c2cccc(N3Cc4c(cc(N5CCN6CCC[C@@H]6C5)cc4C(F)(F)F)C3=O)c2)COC1
- IL-2 secretion Anti-CD3/Anti-CD28 stimulation ([1]; 0.3 μM Cbl-b inhibitor): A (A indicates ≥7.50 fold)
- IL-2 secretion Anti-CD3/Anti-CD28 stimulation ([1]; 1 μM Cbl-b inhibitor): A (A indicates ≥7.50 fold)
- IL-2 secretion Anti-CD3 stimulation [2]: A (A indicates ≥0.201 fold)
- CD25 staining Anti-CD3/Anti-CD28 stimulation ([3]; 0.3 μM Cbl-b inhibitor): A (A indicates ≥1.76 fold)
- CD25 staining Anti-CD3/Anti-CD28 stimulation ([3]; 1 μM Cbl-b inhibitor): A (A indicates ≥1.76 fold)
- CD25 staining Anti-CD3 stimulation [4]: A (A indicates ≥1.001 fold)
- IC50 [5]: < 100 nM

The match of structure and compound is tentative.
